# PubChem BioAssay
# The shares of active, inactive and inconclusive entries below differ from those in the screen. Potencies of inconclusive entries are doubtful fits and often do not repeat. Activity calls are given as the source filed them. Unless noted, cut-off not given; nearly all actives show AC50 up to about 23 µM.
# Columns and labels:
# [1] = growth inhibition of DIPG glioma cells, dose response, cell-based, SU-DIPG-XIII, MIPE5.0, CellTiter-Glo, qHTS (AID 1347064); conditions: SU-DIPG-XIII viability, CellTiter-Glo ATP luminescence;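 on AC50: cells exposed to compound for 48 hours before the viability read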
# [2] = JHH-DIPG-1 glioma cell viability, MIPE5.0 library, CellTiter-Glo luminescence, qHTS (AID 1347067; cut-off not given, nearly all actives have AC50 up to about 26 µM;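 further: cells exposed to compound for 48 hours before readout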); conditions: JHH-DIPG-1 glioma viability, CellTiter-Glo ATP luminescence
# [3] = SU-DIPG-XXV glioma cell viability, MIPE5.0 library, qHTS (AID 1347068; cut-off not given, nearly all actives have IC50 up to about 30 µM;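 on IC50: cells exposed to compound for 48 hours before viability readout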)
# [4] = viability loss in pontine glioma line – cell-based, SU-DIPG-XXV, MIPE5.0, CellTiter-Glo, qHTS, dose response (AID 1347065; cut-off not given, nearly all actives have AC50 up to about 26 µM;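 further: cells exposed to compound for 48 hours before ATP readout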); conditions: CellTiter-Glo ATP luminescence
structure (smiles),measurement,setting,value
COc1ccc([C@@H](O)[C@@H](C)Oc2ccc([C@H]3O[C@H](c4ccc(O[C@H](C)[C@H](O)c5ccc(OC)c(OC)c5)c(OC)c4)[C@H](C)[C@H]3C)cc2OC)cc1OC,AC50,[1],active: 5.9 µM
same,AC50,[2],inconclusive: 1.66 µM [cytotoxic]
same,IC50,[3],active: 11.8 µM
COc1cc(OC)cc(N2CCN(C(=O)Nc3nc4cc(F)ccc4nc3OC)CC2)c1,AC50,[1],active: 2.63 µM
same,AC50,[2],active: 1.32 µM
same,IC50,[3],inconclusive: 37.2 µM [cytotoxic]
CCCNC(=O)c1cn2ncnc(Nc3cc(C(=O)NC4CC4)ccc3C)c2c1C,AC50,[1],inconclusive: 0.00105 µM
same,outcome,[2],inactive
CCn1nc(C2CCN(C(=O)CCO)CC2)nc1-c1cnc(N)c(-c2nnc(C(C)(C)C)o2)n1,AC50,[1],inconclusive: 2.63 µM [cytotoxic]
same,AC50,[2],inconclusive: 0.833 µM [cytotoxic]
same,IC50,[3],inconclusive: 0.661 µM [cytotoxic]
CC(Nc1ncnc2nc[nH]c12)c1cc2cccc(Cl)c2c(=O)n1-c1ccccc1 (centres undefined),AC50,[1],inconclusive: 14.8 µM [cytotoxic]
same,AC50,[2],inconclusive: 16.6 µM [cytotoxic]
same,IC50,[3],inconclusive: 18.6 µM [cytotoxic]
Cc1[nH]nc2ncc(C(=O)N3CCC[C@H]3c3ccc(Cl)cc3)cc12,AC50,[1],inconclusive: 11.8 µM
same,AC50,[2],inconclusive: 1.86 µM
O=C(Nc1ccc(-c2ccnc(Nc3ccc(N4CCOCC4)cc3)n2)cc1)C1CCCN1 (centres undefined),AC50,[1],active: 18.6 µM
same,AC50,[2],inconclusive: 18.6 µM [cytotoxic]
Cc1c(F)ccc(C(=O)Nc2cc([N+](=O)[O-])ccc2N2CCN(C)CC2)c1Cl,outcome,[1],inactive
same,AC50,[2],inconclusive: 1.66 µM [cytotoxic]
O=C(Nc1ccc2c(=O)cc(-c3nn[nH]n3)oc2c1)c1ccc(OCCCCc2ccccc2)cc1,outcome,[1],inactive
same,AC50,[2],inconclusive: 0.00833 µM
same,outcome,[3],inactive
Cc1c(-c2cnccn2)ssc1=S,AC50,[1],active: 10.5 µM
same,AC50,[2],active: 14.8 µM
same,IC50,[3],inconclusive: 29.5 µM [cytotoxic]
Cc1cnc(NC(=O)c2cc(Oc3cnc(C(=O)N(C)C)nc3)c3cc(C)oc3c2)cn1,AC50,[1],inconclusive: 0.0295 µM [cytotoxic]
same,outcome,[4],inactive
same,outcome,[3],inactive
Cc1nc(NC(=O)N2CCCC2C(N)=O)sc1-c1ccnc(C(C)(C)C(F)(F)F)c1 (centres undefined),AC50,[1],active: 2.63 µM
same,AC50,[2],inconclusive: 3.32 µM [cytotoxic]
O=C(Nc1ccnc(NC(=O)C2CC2)c1)c1c(Cl)cccc1Cl,AC50,[1],inconclusive: 1.66 µM [cytotoxic]
same,AC50,[4],inconclusive: 9.34 µM [cytotoxic]
same,IC50,[3],active: 7.42 µM
FC(F)(F)c1ccc(CNc2ccc(Cc3c[nH]c4ncccc34)cn2)cc1,AC50,[1],inconclusive: 23.5 µM [cytotoxic]
same,AC50,[2],active: 18.6 µM
COCCNCc1ccc(-c2cc3nccc(Oc4ccc(NC(=S)NC(=O)Cc5ccc(F)cc5)cc4F)c3s2)nc1,AC50,[1],inconclusive: 10.5 µM [cytotoxic]
same,AC50,[2],active: 7.42 µM
COCCNc1cc(NC(=O)N2CCCc3cc(CN4CCN(C)CC4=O)c(C=O)nc32)ncc1C#N,AC50,[1],inconclusive: 12.1 µM
same,outcome,[2],inactive
C=CC(=O)N1CCC[C@H](n2c(=O)n(-c3ccc(Oc4ccccc4)cc3)c3c(N)ncnc32)C1,AC50,[1],inconclusive: 0.934 µM [cytotoxic]
same,AC50,[2],active: 0.742 µM
CCc1ccc2nc(Nc3cc(Cc4ccccc4)nc(NC4CCC(O)CC4)n3)sc2c1 (centres undefined),AC50,[1],inconclusive: 37.2 µM [cytotoxic]
same,AC50,[2],active: 20.9 µM
same,outcome,[3],inactive
CN1C(=O)c2sccc2N(C)c2nc(Nc3ccc(S(N)(=O)=O)cc3)ncc21,AC50,[1],inconclusive: 14.8 µM [cytotoxic]
same,AC50,[2],inconclusive: 2.35 µM [cytotoxic]
same,IC50,[3],inconclusive: 8.33 µM [cytotoxic]
O=C(O)c1ccc(CN2CCC(CN[C@@H]3C[C@H]3c3ccccc3)CC2)cc1,outcome,[1],inactive
same,AC50,[2],inconclusive: 1.66 µM [cytotoxic]
CC(C)C[C@@H]1NC(=O)[C@@H](C(C)C)NC(=O)[C@@H]2CCCN2C(=O)[C@@H](CC(=O)O)NC(=O)[C@@H](Cc2c[nH]c3ccccc23)NC1=O,AC50,[1],inconclusive: 0.0186 µM
same,outcome,[2],inactive
O=C1[C@H](CC[C@H](O)c2ccc(F)cc2)[C@@H](c2ccc(O)cc2)N1c1ccc(F)cc1,AC50,[1],inconclusive: 14.8 µM [cytotoxic]
same,AC50,[2],inconclusive: 14.8 µM [cytotoxic]
CN[C@H]1CN(c2ccc3c(=O)c(C(=O)O)cn(-c4nccs4)c3n2)C[C@@H]1OC,AC50,[1],inconclusive: 6.05 µM [cytotoxic]
same,AC50,[2],inconclusive: 4.81 µM [cytotoxic]
same,IC50,[3],inconclusive: 2.41 µM [cytotoxic]
C/C(=C\c1csc(C)n1)[C@@H]1C[C@@H]2O[C@]2(C)CCC[C@H](C)[C@H](O)[C@@H](C)C(=O)C(C)(C)[C@@H](O)CC(=O)N1,AC50,[1],inconclusive: 0.0186 µM [cytotoxic]
same,AC50,[2],inconclusive: 0.0209 µM [cytotoxic]
same,IC50,[3],active: 3.32 µM
COc1ccc(-c2oc3ncnc(N)c3c2-c2ccc(NC(=O)Nc3cc(C(F)(F)F)ccc3F)cc2)cc1,AC50,[1],active: 3.72 µM
same,IC50,[3],inconclusive: 4.17 µM [cytotoxic]
NS(=O)(=O)Oc1ccc2c3c(c(=O)oc2c1)CCCCC3,outcome,[1],inactive
same,IC50,[3],inconclusive: 20.9 µM
C[C@@H](OC[C@@]1(c2ccccc2)CC[C@]2(CCC(=O)N2)CN1)c1cc(C(F)(F)F)cc(C(F)(F)F)c1,AC50,[1],inconclusive: 37.2 µM [cytotoxic]
same,AC50,[2],active: 14.8 µM
same,IC50,[3],active: 20.9 µM
CC(C)(O)CS(=O)(=O)Nc1ccc2c(c1)CCN(C(=O)COc1cccnc1)C2,AC50,[1],active: 0.0372 µM
same,IC50,[3],inconclusive: 0.0934 µM [cytotoxic]
O=C(NCC(=O)N1CC[C@H](NC2CCC(O)(c3ccc(-c4ncccn4)cn3)CC2)C1)c1cccc(C(F)(F)F)c1 (some centres undefined),AC50,[1],inconclusive: 0.0661 µM [cytotoxic]
same,outcome,[3],inactive
Cn1c(-c2ccccc2C(F)(F)F)nnc1C12CCC(c3noc(C4CC(F)(F)C4)n3)(CC1)CC2,outcome,[1],inconclusive
same,outcome,[3],inactive
Nc1n[n+]([O-])c2ccccc2[n+]1[O-],AC50,[4],inconclusive: 0.00296 µM [cytotoxic]
same,AC50,[2],inconclusive: 18.6 µM [cytotoxic]
COc1cc(C)[nH]c(=O)c1CN1CCc2c(Cl)cc([C@H](OC)C3COC3)c(Cl)c2C1=O,AC50,[4],inconclusive: 0.332 µM [cytotoxic]
CCC[C@H](N[C@H]1CCc2cc(F)cc(F)c2C1)C(=O)Nc1cn(C(C)(C)CNCC(C)(C)C)cn1,AC50,[1],inconclusive: 29.5 µM [cytotoxic]
same,IC50,[3],inconclusive: 26.3 µM [cytotoxic]
Cc1c(O)cccc1C(=O)NC(CSc1ccccc1)C(O)CN1CC2CCCCC2CC1C(=O)NC(C)(C)C (centres undefined),AC50,[1],inconclusive: 18.6 µM [cytotoxic]
same,AC50,[2],inconclusive: 26.3 µM [cytotoxic]
same,IC50,[3],active: 18.6 µM
CC(C)=CCC[C@](C)(O[C@@H]1O[C@H](CO[C@@H]2O[C@H](CO)[C@@H](O)[C@H](O)[C@H]2O)[C@@H](O)[C@H](O)[C@H]1O)[C@H]1CC[C@]2(C)[C@@H]1[C@H](O)C[C@@H]1[C@@]3(C)CC[C@H](O[C@@H]4O[C@H](CO)[C@@H](O)[C@H](O)[C@H]4O[C@@H]4O[C@H](CO)[C@@H](O)[C@H](O)[C@H]4O)C(C)(C)[C@@H]3CC[C@]12C,AC50,[4],inconclusive: 0.000574 µM [cytotoxic]
COc1cc2c(cc1O)CC[C@@H]1[C@@H]2CC[C@]2(C)[C@@H](O)CC[C@@H]12,AC50,[1],inconclusive: 1.66 µM [cytotoxic]
same,IC50,[3],inconclusive: 0.00833 µM
Cc1nc(-c2cn3c(n2)-c2ccc(-c4cnn(C(C)(C)C(N)=O)c4)cc2OCC3)n(C(C)C)n1,AC50,[1],active: 0.295 µM
same,AC50,[2],inconclusive: 0.0468 µM [cytotoxic]
same,IC50,[3],active: 1.66 µM
C[C@@H]1COCCN1c1cc(-c2ccnn2C)c2ccnc(-c3ccn[nH]3)c2n1,AC50,[1],inconclusive: 0.332 µM [cytotoxic]
same,IC50,[3],inconclusive: 23.5 µM
CCNCCS(=O)(=O)NC[C@@]1(c2ccccc2)SC(NC(=O)C(C)(C)C)=NN1C(=O)C(C)(C)C,AC50,[1],inconclusive: 0.00833 µM [cytotoxic]
same,AC50,[2],inconclusive: 0.00372 µM [cytotoxic]
same,IC50,[3],active: 0.00296 µM
Cc1nc([C@](C)(O)CO)sc1-c1cnc(N)c(O[C@H](C)c2cc(F)ccc2-n2nccn2)c1,AC50,[1],active: 1.48 µM
same,AC50,[2],inconclusive: 0.468 µM [cytotoxic]
same,IC50,[3],inconclusive: 4.68 µM [cytotoxic]
CNS(=O)(=O)Nc1nccc(Cc2c(C)c3ccc(Oc4ncccn4)cc3oc2=O)c1F,AC50,[1],active: 1.18 µM
same,IC50,[3],inconclusive: 9.34 µM [cytotoxic]
COc1ccc2[nH]c3c(c2c1)CCN[C@]31CS[C@@H]2c3c(OC(C)=O)c(C)c4c(c3[C@H](COC1=O)N1[C@@H]2[C@H]2c3c(cc(C)c(OC)c3O)C[C@@H]([C@@H]1O)N2C)OCO4,AC50,[1],inconclusive: 0.00762 µM [cytotoxic]
same,IC50,[3],inconclusive: 0.00481 µM [cytotoxic]

# In another format: results already given
structure (smiles)	measurement	setting	value
COc1cc(OC)cc(N2CCN(C(=O)Nc3nc4cc(F)ccc4nc3OC)CC2)c1	AC50	[2]	active: 1.32 µM
same	IC50	[3]	inconclusive: 37.2 µM [cytotoxic]
CCCNC(=O)c1cn2ncnc(Nc3cc(C(=O)NC4CC4)ccc3C)c2c1C	AC50	[1]	inconclusive: 0.00105 µM
same	outcome	[2]	inactive
CCn1nc(C2CCN(C(=O)CCO)CC2)nc1-c1cnc(N)c(-c2nnc(C(C)(C)C)o2)n1	AC50	[1]	inconclusive: 2.63 µM [cytotoxic]
same	AC50	[2]	inconclusive: 0.833 µM [cytotoxic]
same	IC50	[3]	inconclusive: 0.661 µM [cytotoxic]
CC(Nc1ncnc2nc[nH]c12)c1cc2cccc(Cl)c2c(=O)n1-c1ccccc1 (centres undefined)	AC50	[1]	inconclusive: 14.8 µM [cytotoxic]
same	AC50	[2]	inconclusive: 16.6 µM [cytotoxic]
same	IC50	[3]	inconclusive: 18.6 µM [cytotoxic]
Cc1[nH]nc2ncc(C(=O)N3CCC[C@H]3c3ccc(Cl)cc3)cc12	AC50	[1]	inconclusive: 11.8 µM
same	AC50	[2]	inconclusive: 1.86 µM
O=C(Nc1ccc(-c2ccnc(Nc3ccc(N4CCOCC4)cc3)n2)cc1)C1CCCN1 (centres undefined)	AC50	[1]	active: 18.6 µM
same	AC50	[2]	inconclusive: 18.6 µM [cytotoxic]
Cc1c(F)ccc(C(=O)Nc2cc([N+](=O)[O-])ccc2N2CCN(C)CC2)c1Cl	outcome	[1]	inactive
same	AC50	[2]	inconclusive: 1.66 µM [cytotoxic]
O=C(Nc1ccc2c(=O)cc(-c3nn[nH]n3)oc2c1)c1ccc(OCCCCc2ccccc2)cc1	outcome	[1]	inactive
same	AC50	[2]	inconclusive: 0.00833 µM
same	outcome	[3]	inactive
Cc1c(-c2cnccn2)ssc1=S	AC50	[1]	active: 10.5 µM
same	AC50	[2]	active: 14.8 µM
same	IC50	[3]	inconclusive: 29.5 µM [cytotoxic]
Cc1cnc(NC(=O)c2cc(Oc3cnc(C(=O)N(C)C)nc3)c3cc(C)oc3c2)cn1	AC50	[1]	inconclusive: 0.0295 µM [cytotoxic]
same	outcome	[4]	inactive
same	outcome	[3]	inactive
Cc1nc(NC(=O)N2CCCC2C(N)=O)sc1-c1ccnc(C(C)(C)C(F)(F)F)c1 (centres undefined)	AC50	[1]	active: 2.63 µM
same	AC50	[2]	inconclusive: 3.32 µM [cytotoxic]
O=C(Nc1ccnc(NC(=O)C2CC2)c1)c1c(Cl)cccc1Cl	AC50	[1]	inconclusive: 1.66 µM [cytotoxic]
same	AC50	[4]	inconclusive: 9.34 µM [cytotoxic]
same	IC50	[3]	active: 7.42 µM

# 2 successive entries from above:
structure (smiles),measurement,setting,value
CNS(=O)(=O)Nc1nccc(Cc2c(C)c3ccc(Oc4ncccn4)cc3oc2=O)c1F,AC50,[1],active: 1.18 µM
same,IC50,[3],inconclusive: 9.34 µM [cytotoxic]
